The source of these data is patent publication US20130203067A1.

The chains behind the UniProt entries cited, without tags or fusion partners.
UniProt P10415: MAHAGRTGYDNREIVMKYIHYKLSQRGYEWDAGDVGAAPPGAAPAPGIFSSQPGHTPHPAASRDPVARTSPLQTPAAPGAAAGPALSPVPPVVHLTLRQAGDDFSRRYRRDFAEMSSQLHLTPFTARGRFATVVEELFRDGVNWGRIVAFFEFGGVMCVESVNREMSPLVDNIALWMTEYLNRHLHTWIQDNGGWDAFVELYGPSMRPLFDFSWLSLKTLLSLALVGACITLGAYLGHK

No constants are given. Whether binding was seen depends on the method and setting. Some binding calls cover weakened binding; strength is not graded here. Tags and fused reporters may be left off the sequences shown.

For this experiment, the target named is B-cell lymphoma-2 (BCL2), native, untagged (UniProt P10415). Kind of experiment: in-cell stabilisation of PL fusion by co-expressed BCL-2, U2OS cells, EFC luminescence.

B1: Bak-PL fusion (truncated Bak peptide fused to ProLabel) (peptide, not shown: small tags and cut ends)
chain: GQVGRQLAIIGDDINRNSLAVVLQRRDWENPGVTQLNRLAAHPPFASWRNSEEARTDR
For the molecule B1, the binding result is “binds”.

B2: Bax-PL fusion (truncated Bax peptide fused to ProLabel) (peptide, not shown: small tags and cut ends)
chain: QDASTKKLSECLKRIGDELDSNSLAVVLQRRDWENPGVTQLNRLAAHPPFASWRNSEEARTDR
As to B2, the binding entry is “binds”.
